Results are given in words; binding and its absence hold for the method and conditions named. Sequences can lack the tags named with a protein.
Assays:
[1] = biological target: T1, PagP (untagged construct) (E. coli) (UniProt P37001); assay: SEC; analytical gel filtration on Superdex 75 10/300 GL in 50 mM glycine, pH 9.5; 10 μM PagP with 60 μM SurA, or 2 μM PagP with 6 μM lysozyme, incubated 5 min at room temperature in 0.24 M urea, no lipid; both purified
T1 sequence: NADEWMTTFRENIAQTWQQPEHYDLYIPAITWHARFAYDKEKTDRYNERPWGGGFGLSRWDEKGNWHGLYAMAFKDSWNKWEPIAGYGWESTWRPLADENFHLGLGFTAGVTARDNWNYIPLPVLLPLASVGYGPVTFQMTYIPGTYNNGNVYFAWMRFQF

By UniProt entry, the sequences of proteins in these tests, tags left out. Residues count along the entry.
UniProt P0ABZ6, residues 21-428: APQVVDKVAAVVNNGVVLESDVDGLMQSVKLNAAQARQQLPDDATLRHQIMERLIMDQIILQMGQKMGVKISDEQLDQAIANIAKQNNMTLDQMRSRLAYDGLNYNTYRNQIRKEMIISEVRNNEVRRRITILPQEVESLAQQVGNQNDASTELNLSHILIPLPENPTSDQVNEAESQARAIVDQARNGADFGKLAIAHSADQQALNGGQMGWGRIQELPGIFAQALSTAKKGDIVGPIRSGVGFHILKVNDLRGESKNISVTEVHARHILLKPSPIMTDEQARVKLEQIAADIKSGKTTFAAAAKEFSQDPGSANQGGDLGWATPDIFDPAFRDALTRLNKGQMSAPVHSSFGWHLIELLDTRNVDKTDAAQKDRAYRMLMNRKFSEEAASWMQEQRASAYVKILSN

[2] = biological target: T2, His-tagged PagP (E. coli) (UniProt P37001); assay: pull-down; HT PagP (10 μM) immobilised on Ni-Sepharose resin; 10 μM lysozyme, SurA or Skp trimers added for 1 h in 50 mM glycine, pH 9.5, 5 mM imidazole; washed with 20 mM imidazole; eluted with 5 M urea and 500 mM imidazole; bound and unbound fractions analysed by SDS-PAGE; both purified
T2 sequence: T1 sequence

SurA (from UniProt P0ABZ6 21-428)
binding [1]: no binding (tested: 60 μM SurA, 10 μM PagP)
binding [2]: no binding (tested: 10 μM SurA, 10 μM HT PagP)

— PMC3906610
